Data on two molecules can be found in patent US20070179085A1, “MODULATION OF RHAMM-CAVEOLIN/LIPID RAFT INTERACTIONS TO AFFECT DEVELOPMENT, RESPONSES TO TISSUE INJURY, ANGIOGENESIS, TUMORIGENESIS, METASTASIS AND GROWTH FACTOR/CYTOKINE RESPONSES” (priority 2005, published 2007).

In experiment [1] the target is T1, RHAMM (Receptor for HA-Mediated Motility, CD168), endogenous rat protein (rat) (UniProt P97779).
T1 sequence (looked up): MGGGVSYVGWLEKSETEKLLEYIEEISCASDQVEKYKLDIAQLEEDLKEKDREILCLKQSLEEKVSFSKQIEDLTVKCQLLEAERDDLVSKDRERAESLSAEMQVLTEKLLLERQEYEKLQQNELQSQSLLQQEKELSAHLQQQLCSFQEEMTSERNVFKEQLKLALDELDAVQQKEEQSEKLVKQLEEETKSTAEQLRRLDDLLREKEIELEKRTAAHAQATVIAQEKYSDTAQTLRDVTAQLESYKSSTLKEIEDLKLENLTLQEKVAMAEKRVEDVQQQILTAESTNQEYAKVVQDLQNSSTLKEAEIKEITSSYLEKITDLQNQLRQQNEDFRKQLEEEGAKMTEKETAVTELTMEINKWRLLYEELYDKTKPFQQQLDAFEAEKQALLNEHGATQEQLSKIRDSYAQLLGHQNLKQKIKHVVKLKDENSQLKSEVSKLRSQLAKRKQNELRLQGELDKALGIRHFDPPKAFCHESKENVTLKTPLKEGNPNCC
Nature of the experiment: co-immunoprecipitation from SMC lysate with R36, immunoblot for caveolin-1. For orientation: A western blot detects proteins with antibodies after separation by electrophoresis.

Experiment [2] has as its target T2, caveolin-1, endogenous in rat aortic SMC (rat) (UniProt P41350).
T2 sequence (looked up): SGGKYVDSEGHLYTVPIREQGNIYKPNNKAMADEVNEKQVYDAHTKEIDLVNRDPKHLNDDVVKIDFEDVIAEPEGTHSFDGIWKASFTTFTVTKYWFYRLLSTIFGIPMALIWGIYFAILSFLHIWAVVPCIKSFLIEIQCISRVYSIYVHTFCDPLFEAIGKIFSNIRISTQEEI
In words: co-immunoprecipitation from SMC lysate with caveolin-1 antibody, immunoblot for RHAMM.

Experiment [3] deals with T2, caveolin-1, endogenous in rat aortic SMC (rat). In words: co-immunoprecipitation, FIG. 9C.

Results are given in words; binding and its absence hold for the method and conditions named. In cells and extracts the contact can be indirect. Some results given as binding are weak or reduced against the parent protein; the word gives no strength. Tags and fused reporters may be left off the sequences shown.

B1: caveolin-1, endogenous in rat aortic SMC (protein, UniProt P41350 2-178, looked up)
chain: SGGKYVDSEGHLYTVPIREQGNIYKPNNKAMADEVNEKQVYDAHTKEIDLVNRDPKHLNDDVVKIDFEDVIAEPEGTHSFDGIWKASFTTFTVTKYWFYRLLSTIFGIPMALIWGIYFAILSFLHIWAVVPCIKSFLIEIQCISRVYSIYVHTFCDPLFEAIGKIFSNIRISTQEEI
Consider B1, for which the binding entry in experiment [1] is recorded as “binds”.

B2: RHAMM (Receptor for HA-Mediated Motility, CD168), endogenous rat protein (receptor, UniProt P97779 1-498, looked up)
chain: MGGGVSYVGWLEKSETEKLLEYIEEISCASDQVEKYKLDIAQLEEDLKEKDREILCLKQSLEEKVSFSKQIEDLTVKCQLLEAERDDLVSKDRERAESLSAEMQVLTEKLLLERQEYEKLQQNELQSQSLLQQEKELSAHLQQQLCSFQEEMTSERNVFKEQLKLALDELDAVQQKEEQSEKLVKQLEEETKSTAEQLRRLDDLLREKEIELEKRTAAHAQATVIAQEKYSDTAQTLRDVTAQLESYKSSTLKEIEDLKLENLTLQEKVAMAEKRVEDVQQQILTAESTNQEYAKVVQDLQNSSTLKEAEIKEITSSYLEKITDLQNQLRQQNEDFRKQLEEEGAKMTEKETAVTELTMEINKWRLLYEELYDKTKPFQQQLDAFEAEKQALLNEHGATQEQLSKIRDSYAQLLGHQNLKQKIKHVVKLKDENSQLKSEVSKLRSQLAKRKQNELRLQGELDKALGIRHFDPPKAFCHESKENVTLKTPLKEGNPNCC
For B2, the binding result in experiment [2] and in experiment [3] was “binds” each time.
